This note sets out measurements from patent publication US4093574A (Eli Lilly and Company, priority 1977, dated 1978).

Strings that start with PEPTIDE1 are HELM notation: dots part the residues, brackets hold end groups and non-standard residues.

The nature of this data set: general procedure: Boc solid-phase peptide synthesis; chloromethylated resin or hydroxymethyl resin.

In the case of “PEPTIDE1{A.[dS].C.K.N.F.F.[dW].K.T.F.T.S.C}$PEPTIDE1,PEPTIDE1,3:R3-14:R3$$$V2.0”, where the note is “oxidative folding step, from reduced form”, the oxidative folding yield was 29.6%. This substance also had an isolated yield (whole synthesis) of 34.0%.
